Reference: PMC12199405

By UniProt entry, the sequences of proteins in these tests, tags left out.
UniProt P28033: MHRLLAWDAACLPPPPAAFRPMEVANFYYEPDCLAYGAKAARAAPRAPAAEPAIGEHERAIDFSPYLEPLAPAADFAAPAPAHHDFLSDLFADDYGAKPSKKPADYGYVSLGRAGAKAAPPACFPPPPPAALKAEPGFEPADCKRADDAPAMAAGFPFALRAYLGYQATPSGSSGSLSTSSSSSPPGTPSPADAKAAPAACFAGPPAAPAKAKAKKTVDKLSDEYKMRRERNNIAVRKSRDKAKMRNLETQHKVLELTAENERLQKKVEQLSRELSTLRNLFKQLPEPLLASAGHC

Molecular target: CCAAT/enhancer-binding protein beta (C/EBPβ) (mouse (endogenous in BV2)) (UniProt P28033)
Test: affinity purification with mass spectrometry; nuclear proteins of BV2 cells, reciprocal immunoprecipitation with a C/EBPβ antibody (control IgG), protein A/G magnetic beads, five washes with IP lysis buffer, eluate identified by LC-MS/MS

- binding: binds
B1: p21 (coded by Cdkn1a) (protein, UniProt P39689 1-159)
chain: MSNPGDVRPVPHRSKVCRCLFGPVDSEQLRRDCDALMAGCLQEARERWNFDFVTETPLEGNFVWERVRSLGLPKVYLSPGSRSRDDLGGDKRPSTSSALLQGPAPEDHVALSLSCTLVSERPEDSPGGPGTSQGRKRRQTSLTDFYHSKRRLVFCKRKP

These are yes or no findings as the source states them, for the method shown. Binding seen in cells or lysates may run through a third protein. A yes stands for co-enrichment or nearness to the bait. Other partners may have been found.
